Laboratory results: PubChem BioAssay AID1053208 (Peter MacCallum Cancer Centre, 2014)
The whole screen tested about 17,000 reagents; shown is a part drawn at random. Over the whole deposit, 788 (4.7%) were called active. 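Calls rest on z-score classes alone; an extra cut-off of viability at most 70% of control was not applied to them.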 Not all columns of the deposit are shown.

- Screen: 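Find knock-downs that sensitise mouse osteosarcoma cells to doxorubicin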 (primary screen)
- Cell system: mouse osteosarcoma cells, early-passage culture from an engineered mouse model of fibroblastic bone tumour
- Reagents: siRNA pool against mouse genes, 40 nM
- Timing: about 120 h (48 h before drug, then 72 h with drug)
- Conditions: doxorubicin 100 nM for 72 h, roughly 30-40% inhibitory dose
- Detection: 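Luminescent ATP signal taken as viability with or without 100 nM doxorubicin for 72 h; mean of two wells set against non-targeting siRNA and turned into robust z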
- Direction: viability z-score with doxorubicin: higher = more viable cells under doxorubicin; viability z-score without drug: higher = more viable cells with knock-down alone
- Rule for the call: 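a pool counts as active when its viability z-score with doxorubicin is -2 or below and its z-score without drug lies between -2 and 2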

Spint2 (GeneID 20733) | combined z-score class: no change with or without drug; viability z-score with doxorubicin: 0.11; viability z-score without drug: 0; activity call: inactive
Klra20 (GeneID 93967) | combined z-score class: no change with or without drug; viability z-score with doxorubicin: -0.45; viability z-score without drug: 0.51; activity call: inactive
Rictor (GeneID 78757) | combined z-score class: no change with or without drug; viability z-score with doxorubicin: 0; viability z-score without drug: 0.17; activity call: inactive
Pef1 (GeneID 67898) | combined z-score class: no change with or without drug; viability z-score with doxorubicin: 1.69; viability z-score without drug: 1.01; activity call: inactive
Mfap5 (GeneID 50530) | combined z-score class: low cell count with doxorubicin only; viability z-score with doxorubicin: -3.15; viability z-score without drug: -1.18; activity call: active
Klc3 (GeneID 232943) | combined z-score class: no change with or without drug; viability z-score with doxorubicin: -0.45; viability z-score without drug: -0.17; activity call: inactive
Zmynd19 (GeneID 67187) | combined z-score class: no change with or without drug; viability z-score with doxorubicin: -0.22; viability z-score without drug: 0.84; activity call: inactive
Gm11961 (GeneID 327860) | combined z-score class: no change with or without drug; viability z-score with doxorubicin: 0; viability z-score without drug: 1.35; activity call: inactive
C5ar2 (GeneID 319430) | combined z-score class: no change with or without drug; viability z-score with doxorubicin: -0.22; viability z-score without drug: 0.17; activity call: inactive
Krit1 (GeneID 79264) | combined z-score class: no change with or without drug; viability z-score with doxorubicin: 0.22; viability z-score without drug: -0.17; activity call: inactive
Bmp8b (GeneID 12164) | combined z-score class: no change with or without drug; viability z-score with doxorubicin: -0.45; viability z-score without drug: 0.84; activity call: inactive
Col10a1 (GeneID 12813) | combined z-score class: no change with or without drug; viability z-score with doxorubicin: 0.45; viability z-score without drug: -0.17; activity call: inactive
Prss29 (GeneID 114662) | combined z-score class: no change with or without drug; viability z-score with doxorubicin: -0.45; viability z-score without drug: 0.67; activity call: inactive
Gsr (GeneID 14782) | combined z-score class: no change with or without drug; viability z-score with doxorubicin: -0.45; viability z-score without drug: -1.01; activity call: inactive
Smyd5 (GeneID 232187) | combined z-score class: no change with or without drug; viability z-score with doxorubicin: -1.24; viability z-score without drug: -0.84; activity call: inactive
Adam17 (GeneID 11491) | combined z-score class: no change with or without drug; viability z-score with doxorubicin: -0.22; viability z-score without drug: -0.17; activity call: inactive
Pprc1 (GeneID 226169) | combined z-score class: no change with or without drug; viability z-score with doxorubicin: -0.45; viability z-score without drug: -0.51; activity call: inactive
Rnls (GeneID 67795) | combined z-score class: no change with or without drug; viability z-score with doxorubicin: -0.9; viability z-score without drug: 0.34; activity call: inactive
Tex15 (GeneID 104271) | combined z-score class: high cell count with doxorubicin only; viability z-score with doxorubicin: 2.81; viability z-score without drug: 1.85; activity call: inactive
1700067K01Rik (GeneID 73453) | combined z-score class: high cell count with and without drug; viability z-score with doxorubicin: 2.59; viability z-score without drug: 2.53; activity call: inactive
Hdgfl1 (GeneID 15192) | combined z-score class: no change with or without drug; viability z-score with doxorubicin: 1.57; viability z-score without drug: -1.52; activity call: inactive
Ergic2 (GeneID 67456) | combined z-score class: no change with or without drug; viability z-score with doxorubicin: -0.22; viability z-score without drug: 0.67; activity call: inactive
Grap (GeneID 71520) | combined z-score class: no change with or without drug; viability z-score with doxorubicin: 0; viability z-score without drug: -1.85; activity call: inactive
Ipo7 (GeneID 233726) | combined z-score class: no change with or without drug; viability z-score with doxorubicin: 0.9; viability z-score without drug: 0.67; activity call: inactive
Tefm (GeneID 68550) | combined z-score class: no change with or without drug; viability z-score with doxorubicin: 0.67; viability z-score without drug: 0.51; activity call: inactive
Plaur (GeneID 18793) | combined z-score class: high cell count with doxorubicin only; viability z-score with doxorubicin: 2.02; viability z-score without drug: 1.85; activity call: inactive
Mogs (GeneID 57377) | combined z-score class: no change with or without drug; viability z-score with doxorubicin: -1.69; viability z-score without drug: -0.51; activity call: inactive
Rtp4 (GeneID 67775) | combined z-score class: no change with or without drug; viability z-score with doxorubicin: 0.34; viability z-score without drug: 0.67; activity call: inactive

Already shown: 2 of the entries above.
Zmynd19 (GeneID 67187) | combined z-score class: no change with or without drug; viability z-score with doxorubicin: -0.22; viability z-score without drug: 0.84; activity call: inactive
Gm11961 (GeneID 327860) | combined z-score class: no change with or without drug; viability z-score with doxorubicin: 0; viability z-score without drug: 1.35; activity call: inactive
